According to the supplement of paper PMC10849652:
Some of the results follow.

The chains behind the UniProt entries cited, without tags or fusion partners. Where a name states a change or a piece, a line headed by the entry shows the natural chain unless it says otherwise.
UniProt Q15542, whole entry, looked up: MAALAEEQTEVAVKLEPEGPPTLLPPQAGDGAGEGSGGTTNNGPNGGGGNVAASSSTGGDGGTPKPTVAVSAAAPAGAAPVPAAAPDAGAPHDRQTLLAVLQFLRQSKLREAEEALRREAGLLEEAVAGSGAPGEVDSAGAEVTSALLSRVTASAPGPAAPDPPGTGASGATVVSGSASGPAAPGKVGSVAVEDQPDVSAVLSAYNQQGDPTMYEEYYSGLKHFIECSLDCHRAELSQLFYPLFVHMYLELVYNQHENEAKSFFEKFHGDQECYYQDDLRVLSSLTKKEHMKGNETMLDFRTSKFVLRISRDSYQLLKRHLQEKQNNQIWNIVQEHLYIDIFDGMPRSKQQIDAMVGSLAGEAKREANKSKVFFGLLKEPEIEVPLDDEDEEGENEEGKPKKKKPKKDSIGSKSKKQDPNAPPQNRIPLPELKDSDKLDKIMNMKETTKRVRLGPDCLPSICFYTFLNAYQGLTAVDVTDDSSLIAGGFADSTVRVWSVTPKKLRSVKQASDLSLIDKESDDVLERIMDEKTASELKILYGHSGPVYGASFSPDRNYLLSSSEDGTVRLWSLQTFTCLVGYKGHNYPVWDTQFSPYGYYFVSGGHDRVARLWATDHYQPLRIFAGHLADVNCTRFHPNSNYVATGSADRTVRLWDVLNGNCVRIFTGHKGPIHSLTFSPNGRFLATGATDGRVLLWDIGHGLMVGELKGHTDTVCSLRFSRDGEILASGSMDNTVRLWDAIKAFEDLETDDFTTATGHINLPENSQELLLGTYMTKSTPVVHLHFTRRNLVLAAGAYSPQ
UniProt Q15543, whole entry, looked up: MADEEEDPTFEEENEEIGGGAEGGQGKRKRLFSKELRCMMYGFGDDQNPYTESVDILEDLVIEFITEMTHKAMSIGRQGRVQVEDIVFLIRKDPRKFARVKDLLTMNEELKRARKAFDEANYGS
UniProt Q9UK61: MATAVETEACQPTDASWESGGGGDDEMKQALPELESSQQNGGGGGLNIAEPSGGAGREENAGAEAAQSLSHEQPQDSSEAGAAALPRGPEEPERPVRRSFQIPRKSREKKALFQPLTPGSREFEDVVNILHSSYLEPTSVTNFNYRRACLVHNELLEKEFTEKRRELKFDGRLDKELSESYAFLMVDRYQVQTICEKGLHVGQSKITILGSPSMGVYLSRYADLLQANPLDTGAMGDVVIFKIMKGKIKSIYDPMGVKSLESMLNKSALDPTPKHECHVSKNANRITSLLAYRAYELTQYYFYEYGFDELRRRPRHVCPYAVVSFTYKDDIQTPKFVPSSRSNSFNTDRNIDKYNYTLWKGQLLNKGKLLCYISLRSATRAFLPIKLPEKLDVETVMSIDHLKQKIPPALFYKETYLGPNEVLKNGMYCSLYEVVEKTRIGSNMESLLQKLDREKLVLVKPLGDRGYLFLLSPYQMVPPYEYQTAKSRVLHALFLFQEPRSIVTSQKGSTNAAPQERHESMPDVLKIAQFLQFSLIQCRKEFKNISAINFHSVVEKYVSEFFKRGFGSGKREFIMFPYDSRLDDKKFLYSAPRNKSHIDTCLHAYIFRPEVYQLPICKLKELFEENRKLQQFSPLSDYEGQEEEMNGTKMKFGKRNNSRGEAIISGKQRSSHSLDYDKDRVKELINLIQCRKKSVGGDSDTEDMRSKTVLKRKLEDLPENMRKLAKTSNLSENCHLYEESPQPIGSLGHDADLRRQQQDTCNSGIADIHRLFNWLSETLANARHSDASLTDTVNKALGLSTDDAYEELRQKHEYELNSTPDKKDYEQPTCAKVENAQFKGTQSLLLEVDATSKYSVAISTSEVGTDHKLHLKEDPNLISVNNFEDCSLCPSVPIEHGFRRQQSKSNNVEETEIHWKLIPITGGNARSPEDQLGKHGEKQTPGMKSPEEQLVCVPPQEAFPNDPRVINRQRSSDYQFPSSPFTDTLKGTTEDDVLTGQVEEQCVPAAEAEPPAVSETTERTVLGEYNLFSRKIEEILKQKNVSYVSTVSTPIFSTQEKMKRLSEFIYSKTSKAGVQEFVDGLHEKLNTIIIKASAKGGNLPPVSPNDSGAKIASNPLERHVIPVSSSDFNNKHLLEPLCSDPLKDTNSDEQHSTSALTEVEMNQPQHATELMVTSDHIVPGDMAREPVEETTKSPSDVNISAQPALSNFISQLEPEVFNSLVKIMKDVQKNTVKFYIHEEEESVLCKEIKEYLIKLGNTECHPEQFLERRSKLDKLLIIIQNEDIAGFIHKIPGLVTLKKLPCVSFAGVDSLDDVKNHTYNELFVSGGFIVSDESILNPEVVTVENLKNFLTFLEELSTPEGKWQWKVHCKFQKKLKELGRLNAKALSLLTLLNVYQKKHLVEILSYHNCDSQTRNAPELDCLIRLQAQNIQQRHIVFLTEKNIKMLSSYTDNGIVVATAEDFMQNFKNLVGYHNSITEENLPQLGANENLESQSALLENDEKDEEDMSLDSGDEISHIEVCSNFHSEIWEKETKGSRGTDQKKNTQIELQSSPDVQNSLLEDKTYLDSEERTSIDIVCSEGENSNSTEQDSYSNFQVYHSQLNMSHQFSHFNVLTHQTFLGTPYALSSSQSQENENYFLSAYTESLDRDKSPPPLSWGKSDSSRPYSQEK
UniProt Q9Y2K9: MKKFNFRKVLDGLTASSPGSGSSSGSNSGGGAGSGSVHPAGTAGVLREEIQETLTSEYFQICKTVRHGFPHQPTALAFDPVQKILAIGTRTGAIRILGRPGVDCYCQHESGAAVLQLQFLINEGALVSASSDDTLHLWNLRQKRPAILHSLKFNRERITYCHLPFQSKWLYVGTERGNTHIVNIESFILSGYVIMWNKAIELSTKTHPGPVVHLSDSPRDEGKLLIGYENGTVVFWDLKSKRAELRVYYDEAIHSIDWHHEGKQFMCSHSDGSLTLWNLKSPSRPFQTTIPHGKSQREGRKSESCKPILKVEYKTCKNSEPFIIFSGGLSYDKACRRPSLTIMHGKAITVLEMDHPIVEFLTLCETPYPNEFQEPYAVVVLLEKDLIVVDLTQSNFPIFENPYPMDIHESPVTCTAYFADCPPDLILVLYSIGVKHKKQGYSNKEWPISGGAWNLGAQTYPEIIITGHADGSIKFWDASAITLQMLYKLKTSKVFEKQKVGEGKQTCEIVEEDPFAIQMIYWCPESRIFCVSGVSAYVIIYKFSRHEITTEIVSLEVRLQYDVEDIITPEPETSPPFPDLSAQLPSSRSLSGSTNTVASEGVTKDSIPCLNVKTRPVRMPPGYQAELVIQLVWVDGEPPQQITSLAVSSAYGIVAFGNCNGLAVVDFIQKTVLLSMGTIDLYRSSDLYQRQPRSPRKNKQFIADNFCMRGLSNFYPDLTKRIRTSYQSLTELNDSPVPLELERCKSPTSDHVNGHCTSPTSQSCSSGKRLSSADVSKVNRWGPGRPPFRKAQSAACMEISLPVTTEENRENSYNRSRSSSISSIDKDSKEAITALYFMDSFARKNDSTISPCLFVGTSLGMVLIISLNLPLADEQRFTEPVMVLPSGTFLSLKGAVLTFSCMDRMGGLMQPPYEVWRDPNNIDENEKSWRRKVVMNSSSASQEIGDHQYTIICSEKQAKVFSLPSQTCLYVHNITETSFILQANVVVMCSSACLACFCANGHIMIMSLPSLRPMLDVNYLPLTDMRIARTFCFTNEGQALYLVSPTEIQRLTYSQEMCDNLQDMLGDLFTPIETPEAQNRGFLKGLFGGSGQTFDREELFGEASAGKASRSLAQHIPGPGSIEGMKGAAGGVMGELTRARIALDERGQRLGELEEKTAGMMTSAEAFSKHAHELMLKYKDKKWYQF
UniProt Q8IX01: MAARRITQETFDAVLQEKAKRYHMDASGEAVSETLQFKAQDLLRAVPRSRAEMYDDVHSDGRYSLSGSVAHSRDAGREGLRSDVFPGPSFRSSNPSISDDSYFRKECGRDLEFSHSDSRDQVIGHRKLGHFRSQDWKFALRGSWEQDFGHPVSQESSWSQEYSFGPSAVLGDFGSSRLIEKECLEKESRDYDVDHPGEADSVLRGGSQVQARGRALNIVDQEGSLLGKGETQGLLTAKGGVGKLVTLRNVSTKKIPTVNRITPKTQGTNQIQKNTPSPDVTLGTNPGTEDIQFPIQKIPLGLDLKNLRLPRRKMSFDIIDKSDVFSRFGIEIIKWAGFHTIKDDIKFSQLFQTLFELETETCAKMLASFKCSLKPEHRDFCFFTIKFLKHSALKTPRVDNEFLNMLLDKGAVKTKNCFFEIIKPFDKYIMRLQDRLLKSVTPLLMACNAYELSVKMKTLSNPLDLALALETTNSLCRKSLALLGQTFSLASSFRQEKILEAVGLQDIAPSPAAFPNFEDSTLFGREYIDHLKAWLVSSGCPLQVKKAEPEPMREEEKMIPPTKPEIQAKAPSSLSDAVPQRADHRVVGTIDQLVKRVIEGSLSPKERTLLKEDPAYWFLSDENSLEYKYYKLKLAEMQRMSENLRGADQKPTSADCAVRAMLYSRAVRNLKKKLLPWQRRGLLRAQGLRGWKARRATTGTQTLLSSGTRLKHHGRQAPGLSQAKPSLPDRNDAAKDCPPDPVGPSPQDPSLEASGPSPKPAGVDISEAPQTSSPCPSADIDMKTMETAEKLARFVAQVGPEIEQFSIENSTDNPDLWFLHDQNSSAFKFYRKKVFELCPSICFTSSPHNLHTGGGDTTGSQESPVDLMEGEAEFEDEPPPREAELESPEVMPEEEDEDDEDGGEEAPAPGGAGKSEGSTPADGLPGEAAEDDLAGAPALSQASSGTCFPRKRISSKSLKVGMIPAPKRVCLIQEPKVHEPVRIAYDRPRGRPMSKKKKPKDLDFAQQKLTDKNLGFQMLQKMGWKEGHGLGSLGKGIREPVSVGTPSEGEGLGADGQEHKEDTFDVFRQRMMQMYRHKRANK
UniProt O75486: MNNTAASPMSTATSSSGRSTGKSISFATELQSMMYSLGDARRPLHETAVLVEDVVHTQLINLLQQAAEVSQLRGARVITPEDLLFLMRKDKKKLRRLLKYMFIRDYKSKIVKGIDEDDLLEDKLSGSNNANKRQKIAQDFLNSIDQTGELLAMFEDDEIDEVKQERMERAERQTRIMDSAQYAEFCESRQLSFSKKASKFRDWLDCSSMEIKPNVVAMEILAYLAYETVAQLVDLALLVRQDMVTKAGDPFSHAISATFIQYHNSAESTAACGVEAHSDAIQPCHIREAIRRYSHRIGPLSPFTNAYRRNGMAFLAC
UniProt O94901, whole entry, looked up: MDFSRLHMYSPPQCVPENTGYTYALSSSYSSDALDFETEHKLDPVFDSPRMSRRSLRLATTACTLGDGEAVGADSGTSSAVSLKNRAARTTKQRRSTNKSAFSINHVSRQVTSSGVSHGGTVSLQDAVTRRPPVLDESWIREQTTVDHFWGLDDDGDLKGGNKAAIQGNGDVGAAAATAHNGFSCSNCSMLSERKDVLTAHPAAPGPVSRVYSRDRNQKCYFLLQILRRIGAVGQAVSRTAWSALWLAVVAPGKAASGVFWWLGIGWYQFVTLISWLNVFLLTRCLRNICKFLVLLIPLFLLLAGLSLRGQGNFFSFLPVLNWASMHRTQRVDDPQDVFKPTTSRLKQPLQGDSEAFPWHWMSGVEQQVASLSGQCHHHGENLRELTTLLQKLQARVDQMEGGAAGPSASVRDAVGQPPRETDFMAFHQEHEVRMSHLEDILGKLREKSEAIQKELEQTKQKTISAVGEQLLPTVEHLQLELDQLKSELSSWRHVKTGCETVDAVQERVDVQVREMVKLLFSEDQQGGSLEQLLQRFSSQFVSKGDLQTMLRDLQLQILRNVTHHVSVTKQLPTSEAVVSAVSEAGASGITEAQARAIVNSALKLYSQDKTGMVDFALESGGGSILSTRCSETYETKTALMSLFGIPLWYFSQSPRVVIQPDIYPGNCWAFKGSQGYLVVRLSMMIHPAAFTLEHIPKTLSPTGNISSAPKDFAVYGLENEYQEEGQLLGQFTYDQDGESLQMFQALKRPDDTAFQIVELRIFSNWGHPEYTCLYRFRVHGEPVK
UniProt Q01995: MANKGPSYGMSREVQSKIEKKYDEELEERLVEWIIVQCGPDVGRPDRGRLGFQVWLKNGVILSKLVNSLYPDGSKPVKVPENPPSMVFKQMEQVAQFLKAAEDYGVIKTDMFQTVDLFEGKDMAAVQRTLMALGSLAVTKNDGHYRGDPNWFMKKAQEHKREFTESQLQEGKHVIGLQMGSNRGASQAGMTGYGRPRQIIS
UniProt Q8N2I9: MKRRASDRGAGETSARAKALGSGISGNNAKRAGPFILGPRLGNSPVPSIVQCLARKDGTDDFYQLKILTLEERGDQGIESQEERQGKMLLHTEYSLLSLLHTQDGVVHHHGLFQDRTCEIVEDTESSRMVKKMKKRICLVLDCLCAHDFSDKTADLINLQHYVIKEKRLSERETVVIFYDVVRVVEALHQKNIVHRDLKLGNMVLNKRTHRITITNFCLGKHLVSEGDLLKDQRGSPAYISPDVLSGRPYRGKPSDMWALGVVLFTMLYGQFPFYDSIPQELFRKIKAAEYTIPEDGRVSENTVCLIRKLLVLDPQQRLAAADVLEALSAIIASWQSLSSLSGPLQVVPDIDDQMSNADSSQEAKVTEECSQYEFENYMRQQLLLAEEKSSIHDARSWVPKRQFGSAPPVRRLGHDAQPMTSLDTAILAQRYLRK

Legend:
Assay in all cases: log2 fold change, soluble protein after heating vs DMSO (PISA); higher = thermal stabilisation; K562 cells, 10 uM, 30 min; active = over 0.2 and 3.5 SD of the protein, either way, in both replicates (recomputed)
[1] = compound: Cc1cccc(CC(=O)N2CCc3c2ccc(-c2cn(C)c4ncnc(N)c24)c3F)n1
In short: (§1)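 Thermal stability values are relative to control samples and come from duplicates. They are expressed as log2 fold changes. For measurement, K562 cells (2×10^6 cells/mL) received 10 μM compound for 30 min, and aliquots were heated for 3 min over 48°C-58°C, pooled, and extracted at 4°C in PBS with 0.5% NP-40. Soluble protein, the supernatant after 21,000xg for 90 min, was quantified by TMTpro 16plex LC-MS/MS with equalised channel sums.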

[2] = compound: Cn1cc(-c2ccc3nnc(C(F)(F)c4ccc5ncccc5c4)n3n2)cn1
In short: as §1

[3] = compound: Cc1ccc(NC(=O)c2ccc(CN3CC[C@H](N(C)C)C3)c(C(F)(F)F)c2)cc1Nc1nccc(-c2cncnc2)n1 [bafetinib]
In short: as §1

[4] = compound: Cc1nc(Nc2ncc(C(=O)Nc3c(C)cccc3Cl)s2)cc(N2CCN(CCO)CC2)n1 [dasatinib]
In short: as §1

[5] = compound: Cn1cc(-c2ccc3c(c2)CCN3C(=O)Cc2cccc(C(F)(F)F)c2)c2c(N)ncnc21
In short: as §1

[6] = compound: Cn1cncc1[C@@](N)(c1ccc(Cl)cc1)c1ccc2c(c1)c(-c1cccc(Cl)c1)cc(=O)n2C [tipifarnib]
In short: as §1

[7] = compound: FC(F)(F)c1ccc(/C=C/c2nc(COc3ccc(CCCCn4ccnn4)cc3)co2)cc1 [mubritinib]
In short: as §1

[8] = compound: Cc1cn(-c2cc(NC(=O)c3ccc(C)c(Nc4nccc(-c5cccnc5)n4)c3)cc(C(F)(F)F)c2)cn1 [nilotinib]
In short: as §1

[9] = compound: Cc1nc(Nc2n[nH]c3c2CN(C(=O)N[C@H](CN(C)C)c2ccccc2)C3(C)C)c2sccc2n1
In short: as §1

[10] = compound: Cc1ncc(-c2ccnc(Nc3ccc(S(C)(=O)=O)cc3)n2)n1C(C)C
In short: as §1

Measured: log2 fold change

TAF5 (UniProt Q15542)
inactive: [1] 0.052 | [2] -0.242

SYK (UniProt P43405)
inactive: [3] 0.276 | [4] -0.356 | [5] 0.141 | [2] -0.041 | [6] 0.075

TAGLN3 (UniProt Q9UI15)
inactive: [3] -0.087 | [4] 0.082 | [5] -0.058 | [7] -0.057

SUCO (UniProt Q9UBS9)
inactive: [1] -0.08 | [4] -0.096 | [5] -0.084 | [2] 0.085 | [6] -0.008 | [7] -0.024

SUGT1 isoform 2 (UniProt Q9Y2Z0)
inactive: [3] 0.037 | [4] 0.109 | [2] 0.112 | [6] -0.036 | [7] 0.073

TADA1 (UniProt Q96BN2)
inactive: [6] 0.022

TATDN1 isoform 2 (UniProt Q6P1N9)
inactive: [2] 0.033 | [6] -0.201

SYTL4 (UniProt Q96C24)
inactive: [3] 0.04 | [8] -0.013 | [9] -0.045 | [4] -0.228 | [10] -0.169 | [5] -0.006 | [6] 0.074 | [7] -0.172

STON2 isoform 3 (UniProt Q8WXE9)
inactive: [1] -0.087 | [8] 0.089 | [9] -0.007 | [10] 0.015 | [2] -0.033

TAF13 (UniProt Q15543)
inactive: [1] -0.155 | [4] -0.103 | [2] 0.074 | [7] 0.115

TASOR (UniProt Q9UK61)
inactive: [2] -0.007

TANGO6 (UniProt Q9C0B7)
inactive: [3] 0.033 | [8] -0.018 | [9] -0.066 | [4] -0.216 | [10] -0.006 | [5] 0.083 | [2] -0.048 | [6] -0.067 | [7] 0.042

Three neighbouring records from above:
SYTL4 (UniProt Q96C24)
inactive: [3] 0.04 | [8] -0.013 | [9] -0.045 | [4] -0.228 | [10] -0.169 | [5] -0.006 | [6] 0.074 | [7] -0.172

STON2 isoform 3 (UniProt Q8WXE9)
inactive: [1] -0.087 | [8] 0.089 | [9] -0.007 | [10] 0.015 | [2] -0.033

TAF13 (UniProt Q15543)
inactive: [1] -0.155 | [4] -0.103 | [2] 0.074 | [7] 0.115

Continuation:

SUZ12 (UniProt Q15022)
inactive: [8] -0.081 | [9] 0.028 | [4] 0.047 | [10] 0.031 | [2] 0.026 | [6] 0.027 | [7] -0.093

TAB2 (UniProt Q9NYJ8)
inactive: [2] 0.064

TAF4 (UniProt O00268)
inactive: [3] -0.153 | [1] 0 | [2] 0.042 | [6] -0.231 | [7] -0.01

STOML1 (UniProt Q9UBI4)
inactive: [2] 0.127

TAF9B (UniProt Q9HBM6)
inactive: [3] 0.003 | [1] -0.186 | [4] -0.284 | [5] -0.089 | [6] -0.022 | [7] -0.081

STRBP (UniProt Q96SI9)
inactive: [3] 0.099 | [8] 0.067 | [9] 0.082 | [4] 0.015 | [10] 0.297 | [5] -0.167 | [2] -0.053 | [6] 0.016 | [7] -0.095

SYS1 (UniProt Q8N2H4)
inactive: [1] 0.107 | [4] -0.149 | [2] 0.082 | [6] 0.202

STYX (UniProt Q8WUJ0)
inactive: [1] -0.114 | [4] -0.166 | [2] 0.042

STXBP5L (UniProt Q9Y2K9)
inactive: [1] 0.151 | [8] 0.034 | [9] -0.02 | [4] -0.105 | [10] 0.006 | [5] -0.054 | [6] 0.102

SUGP2 (UniProt Q8IX01)
inactive: [8] -0.025 | [9] -0.059 | [10] -0.291

TBC1D12 (UniProt O60347)
inactive: [5] -0.148 | [6] -0.071 | [7] -0.014

TAF11 (UniProt Q15544)
inactive: [3] -0.03 | [1] -0.02 | [4] -0.039 | [5] -0.051 | [2] -0.038 | [6] 0.086 | [7] 0.071

STK35 (UniProt Q8TDR2)
inactive: [8] 0.123 | [9] 0.523 | [10] -0.021 | [5] -0.201 | [2] -0.076 | [6] 0.139 | [7] -0.223

SVBP (UniProt Q8N300)
inactive: [3] -0.04 | [1] -0.025 | [4] 0.017 | [5] 0.093 | [2] -0.048 | [6] 0.029 | [7] 0.036

SUPT3H isoform 4 (UniProt O75486)
inactive: [2] -0.01

SUN1 isoform 9 (UniProt O94901)
inactive: [1] -0.036 | [8] -0.014 | [9] -0.115 | [4] 0.007 | [10] -0.018 | [5] -0.141 | [2] -0.055 | [6] 0.039 | [7] -0.021

TACC3 (UniProt C9JWI7)
inactive: [2] 0.077

TASP1 (UniProt Q9H6P5)
inactive: [8] 0.088 | [9] 0.062 | [10] -0.116 | [7] 0

TAF6L (UniProt Q9Y6J9)
inactive: [1] -0.078 | [8] 0.032 | [9] -0.048 | [4] -0.224 | [10] 0.046 | [5] -0.106 | [2] -0.018 | [6] 0.055 | [7] 0.104

TBC1D10A (UniProt Q9BXI6)
inactive: [3] -0.134 | [1] -0.078 | [4] -0.32 | [2] -0.044 | [6] 0.096

TAZ (UniProt Q16635)
inactive: [4] -0.093 | [2] 0.058 | [6] -0.066

TAGLN (UniProt Q01995)
inactive: [3] -0.415 | [1] 0.129 | [4] 0.607 | [6] 0.357

STK40 isoform 4 (UniProt Q8N2I9)
inactive: [4] -0.209 | [6] -0.033

TAOK2 (UniProt Q9UL54)
inactive: [1] 0.092 | [8] -0.032 | [9] 0.048 | [10] -0.028 | [2] -0.093 | [6] 0.014 | [7] 0.01

SUPT7L (UniProt O94864)
inactive: [3] -0.033 | [8] 0.185 | [9] -0.147 | [10] 0.253 | [2] 0.007 | [7] -0.065
